In PubChem BioAssay AID504834 (National Center for Advancing Translational Sciences (NCATS), 2011):
About 22,000 (6.9%) of roughly 320,000 compounds were called active. Inconclusive results, whose numbers are uncertain, are shown with a selection of clear calls. The call rests on the fitted dose curve; in most records, active means well fitted inhibition curve with a large enough effect; inconclusive means small, poorly fitted or top-dose-only effect, or another doubt; inactive means no such curve, though single readings can be large or run the other way. Where the call is inconclusive, the potency comes from a doubtful curve fit.

Assay: Primary qHTS for delayed death inhibitors of the malarial parasite plastid, 96 hour incubation
Conditions: P. falciparum luciferase reporter growth; series mostly up to 28.7 µM
Procedure, shortened: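 96 h incubation, 37 C, 5% CO2, of luciferase-reporter P. falciparum-infected RBCs (2% hematocrit, 0.05% parasitemia final) with test compounds; endpoint luminescence.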
Potency means the concentration at half of the fitted maximal effect.

Which Potency does the source give for Cc1ccc(Nc2nc3nonc3nc2N(C)C)cc1 here?
The Potency was inconclusive: 14.7 µM [inhibitor, single point].

With CC(C)=C1C2CCC1C(C(=O)Nc1sc(C)c(-c3ccc(C(C)C)cc3)c1C(N)=O)C2C(=O)O (stereo unspecified) as the compound, how does the Potency read?
Its Potency is inconclusive: 13.1 µM [inhibitor, single point].

Which Potency does the source give for N#CC1=C(N)SC(N)=C(C#N)C1C1CC=CCC1 (stereo unspecified) here?
The Potency was inconclusive: 0.208 µM [inhibitor, full curve, poor fit].

For Fc1ccc(CN2CCN(c3ncnc4scc(-c5ccc(F)cc5)c34)CC2)cc1, which Potency is on record?
Its Potency is inconclusive: 13.1 µM [inhibitor, partial curve, poor fit].

For CCCC(=O)N1CCN(c2ccc([N+](=O)[O-])c(NC(C)c3ccccc3)c2)CC1 (stereo unspecified), which Potency is on record?
The Potency was active: 9.28 µM.

With O=C(N/C(=C\c1ccccc1Cl)C(=O)N1CCOCC1)c1ccc([N+](=O)[O-])cc1 as the compound, how does the Potency read?
The Potency was inconclusive: 0.415 µM [inhibitor, full curve, poor fit].

With Cn1c(N)nc2nc(CCc3ccccc3)c(=O)[nH]c2c1=O as the compound, how does the Potency read?
The Potency was “inactive”.

For COc1ccc(CC(=O)Nc2ccc3c(c2)CCC3)cc1S(=O)(=O)N1CCOCC1, which Potency is on record?
Its Potency is “inactive”.

With CCCN(CCC)C1=CC(=[N+]2CCCC2)CC(C)(C)C1 as the compound, how does the Potency read?
Its Potency is active: 0.329 µM.

For CCn1cc(C(=O)NCc2ccccc2OC)c(=O)c2ccc(C)nc21, which Potency is on record?
Its Potency is inconclusive: 18.5 µM [inhibitor, partial curve, poor fit].

Which Potency does the source give for Cc1cccc(NC(=O)c2ccc3ccccc3n2)c1C here?
Its Potency is “inactive”.

With COc1cc2nc(N(CCCN(C)C)C(=O)c3ccc(C(=O)c4ccccc4)cc3)sc2cc1OC as the compound, how does the Potency read?
Its Potency is inconclusive: 9.28 µM [inhibitor, single point].

Which Potency does the source give for CCCN(CC(=O)Nc1ccccc1C)C(=O)C1CC(=O)N(Cc2ccccc2)C1 (stereo unspecified) here?
Its Potency is “inactive”.

For COc1cc([N+](=O)[O-])ccc1NC(=O)NCC1CCN(Cc2ccc(Cl)cc2)CC1, which Potency is on record?
The Potency was inconclusive: 2.62 µM [inhibitor, partial curve, poor fit].

Which Potency does the source give for COc1ccc(C(=O)Nc2ccc(NC(=O)c3ccccc3F)cn2)cc1 here?
The Potency was “inactive”.

With COc1ccccc1-c1nnc(SCC(=O)NC2CCCCC2)n1C as the compound, how does the Potency read?
The Potency was inconclusive: 18.5 µM [inhibitor, single point].

For O=C(O)c1cc2ccccc2c(N=Nc2cccnc2)c1O, which Potency is on record?
The Potency was active: 2.94 µM.

With Cc1ccccc1NCN1C(=O)C2CCC(C)(C1=O)C2(C)C (stereo unspecified) as the compound, how does the Potency read?
The Potency was “inactive”.

Which Potency does the source give for COc1cccc(/C=C/C(=O)OCC(=O)Nc2cc(S(=O)(=O)N3CCOCC3)ccc2C)c1 here?
Its Potency is “inactive”.

For Oc1cccc(C2c3[nH]c4ccccc4c3CCN2Cc2ccoc2)c1 (stereo unspecified), which Potency is on record?
The Potency was “inactive”.

Which Potency does the source give for C=CCNC(=O)Nc1ccc(F)c(Cl)c1 here?
The Potency was “inactive”.

Which Potency does the source give for CC(=O)Nc1ccc(OCC(=O)NC(C)C(C)C)cc1 (stereo unspecified) here?
Its Potency is inconclusive: 0.586 µM [inhibitor, full curve, poor fit].

With Cc1ccc2nc(SCc3nnc(-c4ccccc4)o3)[nH]c2c1 as the compound, how does the Potency read?
Its Potency is inconclusive: 16.5 µM [inhibitor, single point].

Which Potency does the source give for N#CCS(=O)(=O)c1ccccc1 here?
Its Potency is inconclusive: 18.5 µM [inhibitor, single point].

Which Potency does the source give for CC1Oc2cc3c(-c4c(O)cc(O)c5c(O)c6c(cc45)OC(C)C(C)C6=O)c(O)cc(O)c3c(O)c2C(=O)C1C (stereo unspecified) here?
The Potency was active: 0.522 µM.

For Cc1cc(C)cc(NC(=O)Cn2nnc(C(=O)NCCc3ccccc3)c2N)c1, which Potency is on record?
Its Potency is inconclusive: 0.117 µM [inhibitor, full curve, poor fit].

Which Potency does the source give for CCOc1ccc(N2C(=O)c3cccnc3C2Nc2ccc(C)cc2)cc1 (stereo unspecified) here?
Its Potency is active: 1.65 µM.

Which Potency does the source give for CC(=O)NCCc1cc2cc(C)c(C)cc2[nH]c1=O here?
Its Potency is inconclusive: 0.0522 µM [inhibitor, full curve, poor fit].

Which Potency does the source give for COC(=O)COc1ccc(NC(=O)c2ccco2)cc1 here?
Its Potency is “inactive”.

Which Potency does the source give for CN1CCc2cc(Cl)c(O)cc2[C@H]2c3ccccc3CC[C@@H]21 here?
Its Potency is active: 9.53 µM.

With CC(Sc1nnnn1C)C(=O)Nc1nc(-c2ccc(F)c(F)c2)cs1 (stereo unspecified) as the compound, how does the Potency read?
Its Potency is inconclusive: 9.28 µM [inhibitor, partial curve].

Which Potency does the source give for O=C(Nc1nc2c(s1)CCc1ccccc1-2)c1ccco1 here?
Its Potency is inconclusive: 18.5 µM [inhibitor, single point].

For Cc1nn(C)c(Oc2ccc(Cl)cc2)c1C(=O)Nc1ccc(F)cc1F, which Potency is on record?
Its Potency is inconclusive: 0.928 µM [inhibitor, partial curve, poor fit].

With CN(C)c1cc[n+](CC(=O)N2CCCc3ccccc32)cc1 as the compound, how does the Potency read?
The Potency was inconclusive: 1.85 µM [inhibitor, single point].

With O=C(N/N=C/C1CC=CCC1)c1cc2ccccc2cc1O (stereo unspecified) as the compound, how does the Potency read?
Its Potency is inconclusive: 11.7 µM [inhibitor, single point].

With CC(C)Sc1nc2ccccc2n2cnnc12 as the compound, how does the Potency read?
Its Potency is inconclusive: 2.94 µM [inhibitor, full curve, poor fit].

For COc1ccc(NC(=O)Nc2ccc(C)cc2Br)c(OC)c1, which Potency is on record?
The Potency was inconclusive: 2.33 µM [inhibitor, partial curve, poor fit].

Which Potency does the source give for CC(C)CCN1C(=O)CCC1(C)C(=O)NC1CCCCCCC1 (stereo unspecified) here?
Its Potency is “inactive”.

For Cc1ccccc1OCCC(=O)N1CCN(S(=O)(=O)c2ccc(Br)cc2)CC1, which Potency is on record?
Its Potency is inconclusive: 9.28 µM [inhibitor, single point].

For CC(=O)c1cccc(OC(=O)c2cc(S(=O)(=O)N3CCOCC3)ccc2N2CCCC2)c1, which Potency is on record?
The Potency was inconclusive: 18.5 µM [inhibitor, partial curve, poor fit].

Which Potency does the source give for Cc1cccc(-n2nnc(C(=O)NCc3ccccc3Cl)c2N)c1 here?
The Potency was inconclusive: 11.7 µM [inhibitor, single point].

Which Potency does the source give for OCC(CO)(CO)N=Cc1c(O)ccc2ccccc12 here?
Its Potency is inconclusive: 16.5 µM [inhibitor, single point].

For COC(=O)CCn1[nH]c(=O)c2ccccc2c1=O, which Potency is on record?
The Potency was active: 9.28 µM.

Which Potency does the source give for Cc1ccc(S(=O)(=O)c2cc3ccccc3nc2N)cc1 here?
Its Potency is active: 9.28 µM.

For O=C(COC(=O)c1ccc(S(=O)(=O)N2CCCCC2)cc1)NCc1ccc(F)cc1, which Potency is on record?
The Potency was “inactive”.

With Cc1cccc(-c2nc3ccc(C(=O)N4CCC5(CC4)OCCO5)cc3nc2-c2cccc(C)c2)c1 as the compound, how does the Potency read?
The Potency was inconclusive: 13.1 µM [inhibitor, partial curve].
